Measurements as given in US20210309709A1.
Where a chain is given by its changes, count along the chain named. Results are given in words; binding and its absence hold for the method and conditions named. Some entries that bind do so weakly or less than the wild type. Where a sequence is shown, tags or fusion partners need not be part of it.

Chains of the proteins cited; added tags and fusions are not shown. Residues count along the entry.
UniProt P06213, residues 28-1382: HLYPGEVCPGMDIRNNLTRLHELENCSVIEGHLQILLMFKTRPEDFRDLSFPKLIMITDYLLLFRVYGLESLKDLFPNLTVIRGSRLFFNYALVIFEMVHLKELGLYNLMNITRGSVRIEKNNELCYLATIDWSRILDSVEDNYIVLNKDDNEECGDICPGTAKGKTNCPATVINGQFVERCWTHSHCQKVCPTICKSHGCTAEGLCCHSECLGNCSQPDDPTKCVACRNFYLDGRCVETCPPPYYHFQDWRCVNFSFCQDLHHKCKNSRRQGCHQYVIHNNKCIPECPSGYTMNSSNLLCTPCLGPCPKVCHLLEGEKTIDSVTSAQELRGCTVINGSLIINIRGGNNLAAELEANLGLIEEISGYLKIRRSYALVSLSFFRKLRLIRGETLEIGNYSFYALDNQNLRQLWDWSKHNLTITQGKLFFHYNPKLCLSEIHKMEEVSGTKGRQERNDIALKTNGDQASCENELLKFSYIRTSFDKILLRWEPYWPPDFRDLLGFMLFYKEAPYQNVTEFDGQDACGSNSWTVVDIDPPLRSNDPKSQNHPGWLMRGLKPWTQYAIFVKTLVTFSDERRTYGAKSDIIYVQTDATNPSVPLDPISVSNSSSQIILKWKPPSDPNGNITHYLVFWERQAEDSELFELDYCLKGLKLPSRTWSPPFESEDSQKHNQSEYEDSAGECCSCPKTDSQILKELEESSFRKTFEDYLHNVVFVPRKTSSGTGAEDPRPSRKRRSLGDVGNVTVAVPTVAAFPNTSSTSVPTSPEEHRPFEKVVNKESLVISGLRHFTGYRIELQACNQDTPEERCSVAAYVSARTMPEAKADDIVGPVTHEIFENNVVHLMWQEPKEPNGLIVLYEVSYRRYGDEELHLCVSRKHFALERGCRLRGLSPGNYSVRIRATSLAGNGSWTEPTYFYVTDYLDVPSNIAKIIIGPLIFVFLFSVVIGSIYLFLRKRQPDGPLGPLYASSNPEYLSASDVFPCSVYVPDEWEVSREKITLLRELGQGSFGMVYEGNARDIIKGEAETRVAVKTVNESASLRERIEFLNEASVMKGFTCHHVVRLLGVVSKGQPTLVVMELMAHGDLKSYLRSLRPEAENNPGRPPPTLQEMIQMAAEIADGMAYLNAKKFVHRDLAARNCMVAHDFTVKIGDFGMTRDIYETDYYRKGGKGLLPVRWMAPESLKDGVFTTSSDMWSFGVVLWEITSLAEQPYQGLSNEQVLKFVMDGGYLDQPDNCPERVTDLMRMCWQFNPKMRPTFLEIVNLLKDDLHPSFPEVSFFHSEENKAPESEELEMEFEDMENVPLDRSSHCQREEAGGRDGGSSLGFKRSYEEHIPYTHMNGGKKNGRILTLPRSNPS

B1: insulin-Fc fusion protein of SEQ ID NO: 44 (Fc fusion)
chain: FVNQHLCGSHLVQALYLVCGERGFFYTDPTGGGPRRGIVEQCCTSICSLYQLENYCGGGGAGGGGDCPKCPAPEMLGGPSVFIFPPKPKDTLLIARTPEVTCVVVDLDPEDPEVQISWFVDGKQMQTAKTQPREEQFSGTYRVVSVLPIGHQDWLKGKQFTCKVNNKALPSPIERTISKARGQAHQPSVYVLPPSREELSKNTVSLTCLIKDFFPPDIDVEWQSNGQQEPESKYRTTPPQLDEDGSYFLYSKLSVDKSRWQRGDTFICAVMHEALHNHYTQESLSHSPG
B2: insulin-Fc fusion protein of SEQ ID NO: 45 (Fc fusion)
chain: B1 chain with H10E, Q13E, Y16A
B3: insulin-Fc fusion protein of SEQ ID NO: 47 (Fc fusion)
chain: B1 chain with Q13E, Y16A, F25Y
B4: insulin-Fc fusion protein of SEQ ID NO: 50 (Fc fusion)
chain: FVNQHLCGSHLVEALALVCGERGFFYTDPTGGGGGGSGGGGGIVEQCCTSICSLYQLENYCGGGGAGGGGDCPKCPAPEMLGGPSVFIFPPKPKDTLLIARTPEVTCVVVDLDPEDPEVQISWFVDGKQMQTAKTQPREEQFSGTYRVVSVLPIGHQDWLKGKQFTCKVNNKALPSPIERTISKARGQAHQPSVYVLPPSREELSKNTVSLTCLIKDFFPPDIDVEWQSNGQQEPESKYRTTPPQLDEDGSYFLYSKLSVDKSRWQRGDTFICAVMHEALHNHYTQESLSHSPG
B5: insulin-Fc fusion protein of SEQ ID NO: 53 (Fc fusion)
chain: FVNQHLCGSHLVEALALVCGERGFFYTDPTGGGPRRGIVEQCCTSICSLYQLENYCGGGGGQGGGGQGGGGQGGGGGDCPKCPAPEMLGGPSVFIFPPKPKDTLLIARTPEVTCVVVDLDPEDPEVQISWFVDGKQMQTAKTQPREEQFSGTYRVVSVLPIGHQDWLKGKQFTCKVNNKALPSPIERTISKARGQAHQPSVYVLPPSREELSKNTVSLTCLIKDFFPPDIDVEWQSNGQQEPESKYRTTPPQLDEDGSYFLYSKLSVDKSRWQRGDTFICAVMHEALHNHYTQESLSHSPG
B6: insulin-Fc fusion protein of SEQ ID NO: 54 (Fc fusion)
chain: B1 chain with Q13E, Y16A, D28Q, P29G, T30G, P34G, R35G, R36G
B7: insulin-Fc fusion protein of SEQ ID NO: 52 (Fc fusion)
chain: B1 chain with Q13E, Y16A, D28P, P29G, T30G, P34G, R35G, R36G
B8: insulin-Fc fusion protein of SEQ ID NO: 56 (Fc fusion)
chain: FVNQHLCGSHLVEALELVCGERGFHYGGGGGGSGGGGGIVEQCCTSTCSLDQLENYCNHGGGGQGGGGQGGGGQGGGGGDCPKCPAPEMLGGPSVFIFPPKPKDTLLIARTPEVTCVVVDLDPEDPEVQISWFVDGKQMQTAKTQPREEQFNGTYRVVSVLPIGHQDWLKGKQFTCKVNNKALPSPIERTISKARGQAHQPSVYVLPPSREELSKNTVSLTCLIKDFFPPDIDVEWQSNGQQEPESKYRTTPPQLDEDGSYFLYSKLSVDKSRWQRGDTFICAVMHEALHNHYTQESLSHSPG
B9: insulin-Fc fusion protein of SEQ ID NO: 28 (Fc fusion)
chain: B8 chain with H59G
B10: insulin-Fc fusion protein of SEQ ID NO: 26 (Fc fusion)
chain: FVNQHLCGSHLVEALELVCGERGFHYGGGGGGSGGGGGIVEQCCTSTCSLDQLENYCGGGGGQGGGGQGGGGQGGGGGDCPKCPAPEMLGGPSVFIFPPKPKDTLLIARTPEVTCVVVDLDPEDPEVQISWFVDGKQMQTAKTQPREEQFNGTYRVVSVLPIGHQDWLKGKQFTCKVNNKALPSPIERTISKARGQAHQPSVYVLPPSREELSKNTVSLTCLIKDFFPPDIDVEWQSNGQQEPESKYRTTPPQLDEDGSYFLYSKLSVDKSRWQRGDTFICAVMHEALHNHYTQESLSHSPG
modifications: native N-glycosylation site cNg-NB151
B11: insulin-Fc fusion protein of SEQ ID NO: 57 (Fc fusion)
chain: B10 chain with H25F

Target: human insulin receptor (IR) on human IM-9 cells (human) (UniProt P06213)
Assay: competition flow cytometry, IM-9 cells, 4 C, vs biotinylated RHI

Row | Binder | binding
1 | B1 | binds
2 | B2 | binds
3 | B3 | binds
4 | B4 | binds
5 | B5 | binds
6 | B6 | binds
7 | B7 | binds
8 | B8 | binds
9 | B9 | binds
10 | B10 | binds
11 | B11 | binds
